Here are results for 2 molecules from publication doi:10.1101/2025.06.16.659956.

Amino acid sequences for entries named in this document (tags omitted).
UniProt Q6PDQ2: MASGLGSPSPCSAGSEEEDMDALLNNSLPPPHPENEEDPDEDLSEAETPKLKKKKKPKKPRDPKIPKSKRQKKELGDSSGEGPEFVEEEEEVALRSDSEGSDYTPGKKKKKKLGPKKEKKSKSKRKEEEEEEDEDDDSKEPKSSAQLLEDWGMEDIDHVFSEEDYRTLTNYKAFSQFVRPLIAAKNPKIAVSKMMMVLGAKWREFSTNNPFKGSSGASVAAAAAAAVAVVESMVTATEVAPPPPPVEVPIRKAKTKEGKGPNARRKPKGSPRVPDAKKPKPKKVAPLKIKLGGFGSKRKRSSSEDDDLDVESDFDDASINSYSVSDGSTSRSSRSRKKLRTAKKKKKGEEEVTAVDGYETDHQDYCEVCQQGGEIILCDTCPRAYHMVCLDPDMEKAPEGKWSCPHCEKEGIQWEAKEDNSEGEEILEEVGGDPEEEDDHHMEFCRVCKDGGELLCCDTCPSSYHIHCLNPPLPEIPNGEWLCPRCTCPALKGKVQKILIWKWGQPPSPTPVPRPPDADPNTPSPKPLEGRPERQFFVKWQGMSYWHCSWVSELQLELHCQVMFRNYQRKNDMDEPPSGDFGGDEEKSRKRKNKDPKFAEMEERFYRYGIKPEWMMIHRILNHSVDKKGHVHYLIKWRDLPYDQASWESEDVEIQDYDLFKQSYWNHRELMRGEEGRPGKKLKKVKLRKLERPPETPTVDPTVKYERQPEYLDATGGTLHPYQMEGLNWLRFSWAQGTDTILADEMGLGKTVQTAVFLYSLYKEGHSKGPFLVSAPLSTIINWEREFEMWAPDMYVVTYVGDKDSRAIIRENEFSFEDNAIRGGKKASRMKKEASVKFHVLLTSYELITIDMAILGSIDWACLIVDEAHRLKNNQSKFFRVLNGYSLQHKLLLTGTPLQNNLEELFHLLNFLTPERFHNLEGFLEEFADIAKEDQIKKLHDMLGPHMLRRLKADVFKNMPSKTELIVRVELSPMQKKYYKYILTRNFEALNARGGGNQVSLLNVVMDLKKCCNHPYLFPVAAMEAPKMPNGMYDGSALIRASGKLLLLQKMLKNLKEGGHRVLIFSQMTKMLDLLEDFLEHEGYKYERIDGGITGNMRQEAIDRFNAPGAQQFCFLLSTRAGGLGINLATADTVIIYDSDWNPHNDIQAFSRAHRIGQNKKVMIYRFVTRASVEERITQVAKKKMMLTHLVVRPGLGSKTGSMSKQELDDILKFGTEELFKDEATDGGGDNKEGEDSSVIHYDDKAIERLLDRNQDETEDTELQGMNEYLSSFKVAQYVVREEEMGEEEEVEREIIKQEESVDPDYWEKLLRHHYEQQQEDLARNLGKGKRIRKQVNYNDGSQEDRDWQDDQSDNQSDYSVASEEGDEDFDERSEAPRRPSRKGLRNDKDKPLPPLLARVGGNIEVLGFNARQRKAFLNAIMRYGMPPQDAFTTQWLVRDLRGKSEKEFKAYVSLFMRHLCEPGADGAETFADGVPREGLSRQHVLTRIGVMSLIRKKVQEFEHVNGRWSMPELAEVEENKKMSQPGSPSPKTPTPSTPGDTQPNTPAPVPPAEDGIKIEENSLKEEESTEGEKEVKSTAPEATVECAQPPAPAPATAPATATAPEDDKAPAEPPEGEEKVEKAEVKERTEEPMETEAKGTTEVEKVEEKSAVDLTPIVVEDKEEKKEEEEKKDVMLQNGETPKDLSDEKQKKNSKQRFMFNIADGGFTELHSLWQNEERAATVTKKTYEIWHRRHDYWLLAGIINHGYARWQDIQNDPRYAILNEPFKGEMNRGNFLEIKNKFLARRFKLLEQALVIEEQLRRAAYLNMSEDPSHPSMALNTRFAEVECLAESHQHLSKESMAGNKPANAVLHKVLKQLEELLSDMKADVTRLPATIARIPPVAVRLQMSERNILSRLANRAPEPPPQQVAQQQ

Test [1] addresses T1, 3x Myc-NKX2.2 WT (full-length NKX2.2 with 3 myc epitope tags at the N-terminus) (UniProt P42586).
T1 sequence: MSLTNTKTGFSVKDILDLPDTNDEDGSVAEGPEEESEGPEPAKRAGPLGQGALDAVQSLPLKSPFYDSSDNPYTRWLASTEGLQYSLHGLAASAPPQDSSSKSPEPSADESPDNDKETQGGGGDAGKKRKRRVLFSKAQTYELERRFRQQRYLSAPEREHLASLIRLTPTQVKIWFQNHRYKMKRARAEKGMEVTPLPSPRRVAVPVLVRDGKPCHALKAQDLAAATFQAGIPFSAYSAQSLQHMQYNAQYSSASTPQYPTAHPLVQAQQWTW
In words: co-IP.

Test [2] concerns the target Chromodomain Helicase DNA-binding Protein 4 (CHD4) (mouse (endogenous in MIN6)) (UniProt Q6PDQ2). In words: co-IP.

No constants are given. Whether binding was seen depends on the method and setting. Binding seen in cells or lysates may run through a third protein. Some binding calls cover weakened binding; strength is not graded here. For some assays here: Sequences can lack the tags named with a protein.

For the molecule “Chromodomain Helicase DNA-binding Protein 4 (CHD4) (from UniProt Q6PDQ2 1-1915)”, in test [1], the binding result is “binds”.

B1: endogenous NKX2.2 (protein, UniProt P42586 1-273)
chain: T1 sequence
Regarding B1, the binding result in test [2] is “binds”.
